Reference: article PMC4785745, “Genome-wide analysis identifies gain and loss/change of function within the small multigenic insecticidal Albumin 1 family of Medicago truncatula” (BMC Plant Biology, 2016)

Test system: Sf9 cell ramp membrane current
Assay: Whole-cell patch-clamp: blockage of Sf9 cell ramp membrane current
Format: cell-based, Spodoptera frugiperda
Conditions: Hill fit of concentration-response of ramp membrane current block at +50 mV, Sf9 cells, n = 9 (AG41), n = 8 (PA1b)
Method: We further investigated the AG41’s biological activity by performing an electrophysiological experiment on cultured Sf9 cells to check whether its cell-membrane ion transport alteration differed from that of PA1b, the model pea peptide. […] At 35 nM, AG41 decreased by approximately 35 % the ramp current amplitude measured at +50 mV (from 68 pA to 44 pA), while a similar concentration of 37.5 nM PA1b had no effect (trace from AG41 even differed from control at 3.5 nM).
Current recordings were made at room temperature, under voltage clamp using the whole-cell configuration of the patch-clamp technique. Command voltage and data acquisition were performed with pClamp software (Axon Instruments, Foster city, CA, USA). The holding potential was −80 mV. Membrane currents were evoked, every 10 s, by voltage ramps of 1.5 s in duration applied from −100 to 90 mV, filtered at 300 Hz and sampled at 1 kHz with an analogue-to-digital converter (Labmaster TM 40, Scientific Solutions Inc., Solon OH, USA). The external solution contained (in mM): 135 NaCl, 4 KCl, 2 MgCl2, 10 CaCl2 and 10 Mes, adjusted to pH 6.4 with NaOH. The internal solution contained (in mM): 140 K-aspartate, 1 MgCl2, 3 K2-ATP, 5 EGTA and 5 Hepes, adjusted to pH 7.2 with KOH. […]
Biological results are expressed as the mean ± S.E.M., n indicating the number of Sf9 cells studied (electrophysiology). […]

CC[C@H](C)[C@@H]1NC(=O)[C@H](C(C)C)NC(=O)[C@H](CC(C)C)NC(=O)CNC(=O)[C@H](C(C)C)NC(=O)[C@@H]2CCCN2C(=O)[C@H]([C@@H](C)CC)NC(=O)[C@@H]2CSSC[C@@H]3NC(=O)[C@H](C(C)C)NC(=O)CNC(=O)[C@H](CC(N)=O)NC(=O)[C@@H](NC(=O)[C@H](CO)NC(=O)[C@H](C)N)CSSC[C@H](NC(=O)[C@H](C)NC(=O)[C@H](CO)NC(=O)[C@H]([C@@H](C)O)NC(=O)CNC(=O)[C@H](CSSC[C@@H](C(=O)N[C@@H](CCCNC(=N)N)C(=O)N[C@@H](CC(N)=O)C(=O)N4CCC[C@H]4C(=O)N[C@@H](CO)C(=O)NCC(=O)O)NC(=O)[C@H](Cc4ccc(O)cc4)NC(=O)CNC1=O)NC(=O)[C@@H]1CCCN1C(=O)[C@@H]1CCCN1C(=O)[C@H](CCSC)NC(=O)[C@H](CCC(=O)O)NC(=O)[C@H](Cc1ccccc1)NC(=O)[C@@H]1CCCN1C(=O)[C@H](CO)NC3=O)C(=O)N[C@@H](CCCNC(=N)N)C(=O)N2 [PA1b, reference compound] (H-ASCNGVCSPFEMPPCGTSACRCIPVGLVIGYCRNPSG-OH; disulfide 3-20, 7-22, 15-32; N-terminus and C-terminus assumed)
Hill coefficient: 1.7 ± 0.2

ASCPNVGAVCSPFETKPCGNVKDCRCLPWGLFFGTCINPTG (disulfide 3-24, 10-26, 18-36 (inferred)) [AG41]
Hill coefficient: 1.4 ± 0.1

Bridge positions count the residues as written; N and C are the ends. Ends that are not written are not given here. Peptide text beside a SMILES is read from it.
